Reference: PubChem BioAssay AID686937 (Drosophila RNAi Screening Center, 2013)
In all, the deposit lists about 23,000 reagents; below is a random part of those that have a named target and a result. 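Reduced-secretion tags in replicate 1 do not always agree with the z-scores; no criterion for assigning the tags was given.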 The numbers tell different reagents against one gene apart. No sequences are given here. The record does not give: the amount of reagent.

Aim: 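Genes whose loss weakens secretory pathway function in fly cells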 (primary screen)
Cells: Drosophila S2 cells expressing secreted horseradish peroxidase
Knock-down reagent: long dsRNA against Drosophila genes
Time to read-out: about 5.5 days (5 days dsRNA, then 12 h reporter induction)
Challenge: reporter expression induced after 5 days of dsRNA, read 12 h later; inducer not stated
Detection: 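After 5 days of dsRNA and 12 h of reporter induction, medium peroxidase read by chemiluminescence and scored as per-plate z-score; higher values mean more reporter released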
Scale: z-score: higher = more reporter secreted into medium

With Brd8 (Bromodomain containing 8), how do the results read?
z-score, replicate 1: 0.6; z-score, replicate 2: 0.53

For CG18748, what does the deposit list?
z-score, replicate 1: 0.43; z-score, replicate 2: 0.39

What did the screen give for nmo (nemo) #1?
z-score, replicate 1: 0.29; z-score, replicate 2: 0.4

What did the screen give for nmo (nemo) #2?
z-score, replicate 1: 0.21; z-score, replicate 2: 0.39

With CCT5 (Chaperonin containing TCP1 subunit 5), how do the results read?
z-score, replicate 1: -0.5; z-score, replicate 2: -0.42

2 entries from above, ordered by “z-score, replicate 2”, descending.
nmo (nemo) #2 — z-score, replicate 1: 0.21; z-score, replicate 2: 0.39
CCT5 (Chaperonin containing TCP1 subunit 5) — z-score, replicate 1: -0.5; z-score, replicate 2: -0.42

More entries follow.
For CG2187, how do the results read?
z-score, replicate 1: 0.48; z-score, replicate 2: 0.4

For MTPAP (mitochondrial poly(A) polymerase), what does the deposit list?
z-score, replicate 1: 0; z-score, replicate 2: 0.27

What is on record for CG15468?
z-score, replicate 1: 0.09; z-score, replicate 2: 0.41

For Peritrophin-15a, how do the results read?
z-score, replicate 1: 0.26; z-score, replicate 2: 0.29

How did the screen score Hsp23 (Heat shock protein 23)?
z-score, replicate 1: 0.32; z-score, replicate 2: 0.13

With Ugt35B1 (UDP-glycosyltransferase family 35 member B1), what was measured?
z-score, replicate 1: 0.21; z-score, replicate 2: 0.25

For Drs (Drosomycin), what was measured?
z-score, replicate 1: 0.39; z-score, replicate 2: 0.16

With stv (starvin) #1, how do the results read?
z-score, replicate 1: 0.61; z-score, replicate 2: 0.5

For stv (starvin) #2, how do the results read?
z-score, replicate 1: 0.36; z-score, replicate 2: 0.32

What did the screen give for rpk (ripped pocket) #1?
z-score, replicate 1: 0.13; z-score, replicate 2: 0.32

How did the screen score rpk (ripped pocket) #2?
z-score, replicate 1: 2.16; z-score, replicate 2: -0.39
